All values are in %. How 0% and 100% were set is not recorded. Most values in the screen are low, and negative values occur. Compounds were drawn at random from those tested, without regard to their results.

Protein sequences, listed by entry. Tags and fused reporters are not part of them.
UniProt E9BF75, entry or part of it: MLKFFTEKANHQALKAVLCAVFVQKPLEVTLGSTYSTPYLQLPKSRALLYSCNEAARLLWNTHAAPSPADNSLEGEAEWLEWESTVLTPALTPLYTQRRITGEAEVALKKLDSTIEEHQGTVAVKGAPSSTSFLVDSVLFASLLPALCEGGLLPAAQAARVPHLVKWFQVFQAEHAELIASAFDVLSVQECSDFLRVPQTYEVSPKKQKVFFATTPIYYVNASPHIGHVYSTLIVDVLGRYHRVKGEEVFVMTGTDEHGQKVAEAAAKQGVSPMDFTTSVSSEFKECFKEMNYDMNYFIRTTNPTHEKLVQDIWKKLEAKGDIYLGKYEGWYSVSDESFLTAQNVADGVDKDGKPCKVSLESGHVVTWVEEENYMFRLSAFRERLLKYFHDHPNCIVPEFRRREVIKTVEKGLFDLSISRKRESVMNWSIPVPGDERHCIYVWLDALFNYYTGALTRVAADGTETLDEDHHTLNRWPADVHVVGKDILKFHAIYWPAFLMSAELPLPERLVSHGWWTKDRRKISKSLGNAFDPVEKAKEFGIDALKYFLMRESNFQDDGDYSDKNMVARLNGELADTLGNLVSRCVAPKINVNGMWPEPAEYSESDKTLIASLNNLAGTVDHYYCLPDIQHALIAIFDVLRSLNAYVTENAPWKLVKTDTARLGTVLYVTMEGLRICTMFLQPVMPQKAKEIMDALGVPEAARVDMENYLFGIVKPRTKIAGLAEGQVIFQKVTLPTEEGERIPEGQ

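Methionyl-tRNA synthetase (putative), Leishmania donovani (UniProt E9BF75). Primary screen of methionyl-tRNA synthetase; the read-out is not stated. The test concentration is not given. The values are filed as inhibition. Size under these conditions: about 68,000 compounds, about 24 of them at 50% or above in at least one test.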

| # | SMILES | inhibition |
|---|---|---|
| 1 | `O=C(C1CC=CC1)N1CC[C@H]2[C@@H]1CCC(=O)N2c1ccccc1` | 15.33 |
| 2 | `CC(NCc1nnc2n1CCCC2)c1nc(C(C)(C)C)no1` (stereo not drawn) | 16.03 |
| 3 | `COc1cc(CNC(=O)Nc2nncs2)ccc1O` | 11.94 |
| 4 | `CC(C)=CCN1CCN(CCCOc2ccccc2)[C@H]2CS(=O)(=O)C[C@H]21` | 5.867 |
| 5 | `Cn1c(C(=O)N2CCC(C3OCCO3)CC2)c(Cl)c2ccccc21` | 19.23 |
| 6 | `c1cnnc(N2CCCC2CNCc2nnc(C3CC3)o2)c1` (stereo not drawn) | 5.674 |
| 7 | `COCc1noc(-c2nn(-c3ccc(F)cc3)c3c2CCC3)n1` | 14.24 |
| 8 | `COc1ccccc1C(O)CNC(=O)Nc1ncccc1C` (stereo not drawn) | 5.164 |
| 9 | `COc1ccc(NC(=O)CCN2CC=C(c3cnn(C)c3)CC2)c(C)c1` | 15.41 |
| 10 | `O=c1nc(SCc2cccnc2)c2c(n1CCO)CCCC2` | 7.343 |
| 11 | `CCC[C@@H](NC(N)=O)C(=O)N1CCc2c(Cl)cccc2C1` | 11.78 |
| 12 | `O=C1CN(C(=O)C2CN(c3ccccc3)CCO2)CCN1` (stereo not drawn) | 12.73 |
| 13 | `Cc1ncsc1-c1nnc(C2CCN(CC3CCCCC3)CC2)o1` | 3.846 |
| 14 | `COC(=O)CCN1CCCC1c1ccccc1Cl` (stereo not drawn) | 7.805 |
| 15 | `CC(C)c1cc(N2CCSCC2)n2nccc2n1` | 2.198 |
| 16 | `O=C1CCCN1Cc1ncn2c1CN(Cc1cccs1)CCC2` | 15.56 |
| 17 | `CCOCCOc1ccccc1C(=O)N1CCCC(c2ncc[nH]2)C1` (stereo not drawn) | 10.34 |
| 18 | `CCNC(=O)[C@@H]1CCCN1[C@@H](C(=O)NC)C1CC1` | 1.648 |
| 19 | `CS(=O)(=O)N1CC[C@]2(O)CCN(c3ccnc(N)n3)C[C@@H]2C1` | 3.323 |
| 20 | `Cc1nc[nH]c1CN(Cc1ccccc1)Cc1nccs1` | 13.4 |
| 21 | `Cc1cc(N2CCCC2c2cc(Nc3cnccn3)nc(C)n2)ncn1` (stereo not drawn) | 14.24 |
| 22 | `Cc1c(NCCO)cccc1OC1CCCC1` | 9.777 |
| 23 | `CCCS(=O)(=O)N1C[C@@H]2CC[C@H](C1)N(Cc1cscn1)C2=O` | 24.5 |
| 24 | `Clc1ccc(C2(NCc3noc(C4CC4)n3)CCCC2)cc1` | 14.21 |
| 25 | `O=c1[nH]c2ccccc2c(=O)n1Cc1nnnn1C1CC1` | 6.738 |
| 26 | `c1ccc(-n2cc(CN3CCCC(Cn4cncn4)C3)nn2)cc1` (stereo not drawn) | 15.97 |
| 27 | `CCN(Cc1nc2c(cnn2C)c(=O)[nH]1)c1cc(C)ccc1C` | 5.013 |
| 28 | `CCN(CC)CCn1ccnc1-c1[nH]cnc1C` | 10.56 |
| 29 | `C[C@@H](NC(=O)c1cnccn1)c1c(-c2ccc(F)cc2)noc1C(=O)O` | 14.29 |
| 30 | `CS(=O)(=O)N1CCN(CC(=O)Nc2cccc(Cl)c2)CC1` | 7.434 |
| 31 | `Cc1cc(-c2ccc(=O)n(C3CCN(C(=O)C4CC4)CC3)n2)c(C)o1` | 9.449 |
| 32 | `O=C(CSc1ccccn1)NCc1ccc2c(c1)CCC(=O)N2` | 0 |
| 33 | `O=C([C@H]1CN(Cc2ccc(F)cc2)C[C@H]2OCC[C@@H]12)N1CCCO1` | 6.189 |
| 34 | `Cc1cccc(N2CCN(C(=O)CCCC(=O)N(C)C)C(C)C2)n1` (stereo not drawn) | 16.33 |
| 35 | `O=C1CSC(c2ccc3c(c2)OCO3)c2cn[nH]c2N1` (stereo not drawn) | 11.43 |
| 36 | `CC(C)c1nc(CN(C)C(=O)CNC(N)=O)cs1` | 17.96 |
| 37 | `COCc1n[nH]/c(=N/C(=O)COc2cnc(C)cc2O)s1` | 13.38 |
| 38 | `CN1CCOC(CNC(=O)CCCOc2cccc(F)c2)C1` (stereo not drawn) | 19.2 |
| 39 | `CC(C)n1cc2cc(NC(=O)CCS(C)(=O)=O)ccc2n1` | 17.13 |
| 40 | `CN1CCC2(CC1)CCN(C(=O)c1onc3ccccc13)C2` | 14.02 |
| 41 | `COCCNc1nc(N2CCOCC2)nc2nccnc12` | 9.164 |
| 42 | `CCC(O)CNC(=O)C1(N(C)Cc2ccccc2)Cc2ccccc2C1` (stereo not drawn) | 15.61 |
| 43 | `Cc1ncc2c(c1CNC(=O)C1(c3ccc(F)cc3)CC1)CCNC2` | 3.846 |
| 44 | `O=C(O)[C@@H]1CN(C2CCOCC2)C[C@H]1C1CC1` | 4.795 |
| 45 | `Cc1nc(NCc2ccc(F)cc2)cc(C2CCCN2)n1` (stereo not drawn) | 9.062 |
| 46 | `c1cncc(COCc2nnc3n2CCN(Cc2ccco2)C3)c1` | 11.11 |
| 47 | `CCN(Cc1ccc(C(C)=O)cc1)CC1CCOCC1` | 12.3 |
| 48 | `NC(=O)N1CCC2(CC1)CN(c1ncccn1)CCO2` | 17.58 |
| 49 | `O=C(c1cc(C2CC2)[nH]n1)N1CCN(Cc2ccncc2)CC1` | 15.56 |
| 50 | `O=C(N1CCCC1)N1C[C@@H](OCc2cccnc2)[C@H]2OCCC[C@H]21` | 11.76 |
| 51 | `CCn1cc(N2Cc3nc(N)ncc3C2=O)cn1` | 10.37 |
| 52 | `CC(=O)N(C)c1nc(Cn2nnnc2C(C)(C)C)cs1` | 18.92 |
| 53 | `CNC(=O)[C@@H]1C[C@@H](n2cc(-c3ccc(Cl)cc3)nn2)CN1` | 5.483 |
| 54 | `CC(=O)N[C@H]1C[C@@H](c2nc(-c3ccc4c(c3)OCO4)no2)N(C)C1` | 4.511 |
| 55 | `CCC(=O)N1CCCC(c2nc(-c3cccnn3)no2)C1` (stereo not drawn) | 5.986 |
| 56 | `Cc1ccc(C(C(=O)O)N(C)CCN2CCOCC2)c(F)c1` (stereo not drawn) | -3.896 |
| 57 | `O=C1CC(N(C(=O)CCc2c[nH]c3ccccc23)C2CC2)C(=O)N1` (stereo not drawn) | 13.4 |
| 58 | `O=C(c1cccnc1)N1C[C@@H]2OCCN(CCN3CCCC3)[C@@H]2C1` | 17.41 |
| 59 | `O=C(c1cccc2cc[nH]c12)N1CCC2(CCOC2)C1` (stereo not drawn) | 20.63 |
| 60 | `c1ccc(-c2cnc(CNCC3CCCN3c3cccnn3)o2)cc1` (stereo not drawn) | 10.42 |
| 61 | `O=C(NCCCn1nc2ccccn2c1=O)Nc1ccc(F)cc1F` | 15.64 |
| 62 | `COc1ccc(F)cc1C(=O)N1C[C@H]2CC[C@@H]1CN(c1ncccn1)C2` | 15.38 |
| 63 | `Cc1nn(C)c(Cl)c1C1CCCN1CC(=O)N1CCCCC1` (stereo not drawn) | 0.5222 |
| 64 | `CN(C)c1ccc(NC(=O)c2cccc(N(C)C)c2)nc1` | 2.957 |
| 65 | `O=C1NC2(CCc3ccccc31)CCN(C(=O)c1ccncc1)C2` (stereo not drawn) | 14.33 |
| 66 | `CN(C)CCN1CC(C(=O)N2CCC(c3cccc(O)c3)CC2)CC1=O` (stereo not drawn) | 12.42 |
| 67 | `COCCN(Cc1ccc(OC)nc1)Cc1cccs1` | 5.292 |
| 68 | `CSCC(=O)Nc1ncc(I)cc1C` | -3.621 |
| 69 | `CCC(=O)N1CCN(C(=O)Nc2cccc(F)c2)[C@H]2CS(=O)(=O)C[C@H]21` | 10.63 |
| 70 | `Cn1cc(C2CCCN2C(=O)c2cnc(-c3ncccn3)s2)cn1` (stereo not drawn) | 20.34 |
| 71 | `CC1CCc2nn(CCNC(=O)c3ccco3)c(=O)cc2C1` (stereo not drawn) | 7.979 |
| 72 | `O=c1c2ccccc2nc2n1CCC2O` (stereo not drawn) | 10.44 |
| 73 | `O=C(CN1CCc2sccc2C1)Nc1nccs1` | 13.24 |
| 74 | `CC(c1nc(C(C)(C)C)no1)S(=O)(=O)CC(=O)N1CCCC1` (stereo not drawn) | 12.24 |
| 75 | `c1ccc2c(Cc3nnc([C@H]4CCNC4)o3)c[nH]c2c1` | 9.023 |
| 76 | `Cc1nc(C(=O)N2CCN(C(=O)C3CCC3)[C@@H]3CS(=O)(=O)C[C@@H]32)cs1` | 1.818 |
| 77 | `COc1ccccc1-n1cc(C(=O)NCCCn2ccnn2)cn1` | 15.97 |
| 78 | `CCc1nnc2ccc(N3CCN(S(=O)(=O)c4ccc(Cl)s4)CC3)nn12` | 20 |
| 79 | `Cc1csc(N2CCN(C(=O)C(C(C)C)n3cncn3)CC2)n1` (stereo not drawn) | 27.93 |
| 80 | `Cc1cnn(C2(C(=O)O)CCN(c3ccncc3F)CC2)c1` | 4.658 |
| 81 | `Cc1nnc2n1CCN(C(=O)c1cnc3c(cnn3CC(C)C)c1)C2` | 6.774 |
| 82 | `CCC1c2ccsc2CCN1C(=O)NCc1cccnc1OC` (stereo not drawn) | 17.71 |

8 of the entries, repeated:

{"smiles": "CCNC(=O)[C@@H]1CCCN1[C@@H](C(=O)NC)C1CC1", "inhibition": 1.648}
{"smiles": "CCC1c2ccsc2CCN1C(=O)NCc1cccnc1OC", "stereo": "stereo not drawn", "inhibition": 17.71}
{"smiles": "CCN(Cc1nc2c(cnn2C)c(=O)[nH]1)c1cc(C)ccc1C", "inhibition": 5.013}
{"smiles": "CC(NCc1nnc2n1CCCC2)c1nc(C(C)(C)C)no1", "stereo": "stereo not drawn", "inhibition": 16.03}
{"smiles": "CCc1nnc2ccc(N3CCN(S(=O)(=O)c4ccc(Cl)s4)CC3)nn12", "inhibition": 20}
{"smiles": "Cc1cccc(N2CCN(C(=O)CCCC(=O)N(C)C)C(C)C2)n1", "stereo": "stereo not drawn", "inhibition": 16.33}
{"smiles": "O=C(CSc1ccccn1)NCc1ccc2c(c1)CCC(=O)N2", "inhibition": 0}
{"smiles": "O=C(c1cccc2cc[nH]c12)N1CCC2(CCOC2)C1", "stereo": "stereo not drawn", "inhibition": 20.63}

The values are deposited in ChEMBL (CHEMBL3988442, “University of Dundee, Small-Polar-MMV Screening Library” (2021)).